In publication PMC4929710, “Specificity and mechanism of action of alpha-helical membrane-active peptides interacting with model and biological membranes by single-molecule force spectroscopy” (Scientific Reports, 2016):

Key:
Experiment in all cases: Tryptophan fluorescence with LUVs
Assay type in all cases: binding
PC/PG (7:3 w/w) LUVs = settings: HEPES pH 7.4, 25 °C, 10 min
Text: (§1) In order to investigate the interaction between peptides and difference types of cell membranes, three different LUVs were used to mimic a prokaryotic cell membrane (PC/PG), a normal eukaryotic cell membrane (PC/Chol), and a cancer cell membrane (PC/SM/PE/PS/Chol). Tryptophan residue in the peptide sequence was used as a fluorescent probe to examine the interaction of peptides with model membranes. […] For example, in the PC/PG (7:3 w/w) anionic prokaryotic mimicking model membrane, peptides V13L and A12L/A20L had the strongest hydrophobicity with blue shift values of approximately 37 nm and 38 nm, respectively. Conversely, peptide V13E with a negative charge of glutamic acid residue, and peptide L6A/L17A with the lowest hydrophobicity had blue shift values of approximately 18 nm and 17 nm, respectively. […] In addition, within PC/SM/PE/PS/Chol (4.35:4.35:1:0.3:1 w/w) as a cancer-mimicking model membrane, the same results could be obtained in that peptide hydrophobicity correlates with anticancer activity and the blue shift values of peptides.
(§2) In accordance with previously described methods, LUVs were prepared with PC/PG (7:3 w/w), PC/Chol (8:1 w/w), and PC/SM/PE/PS/Chol (4.35:4.35:1:0.3:1 w/w) to mimic prokaryotic cell, […], membranes, respectively. Lipids using the freeze-thaw method as described previously, followed by extrusion through […] double-stacked nuclepore filters using an Mini-Extruder (Avanti Polar Lipids, Inc.)[11][27].
(§3) Three kinds of LUVs were prepared and cultured in HEPES buffer (pH 7.4, 10 mM HEPES, 150 mM NaCl) and the molar concentration was adjusted to 100 μM. A total of 14 μL of 100 μM MAPs was mixed with 686 μL of 100 μM liposomes at 25 °C for 10 min. A Shimadzu RF-5301PC, (excitation wavelength of […], emission wavelength of 300–450 nm) was used to measure the tryptophan fluorescence. Potassium iodide (KI) as a quencher was added to the previous reaction system for a final concentration of 0.02–0.08 M, respectively. The experimental data were plotted according to the Stern–Volmer equation F0/F = 1 + Ksv[Q], where F0 and F are the fluorescence intensity in the absence or presence of a quencher at concentration [Q], respectively, and Ksv is the Stern–Volmer quenching constant.

[1] = system: PC/SM/PE/PS/Chol (4.35:4.35:1:0.3:1 w/w) LUVs
Text: as §1, §2, §3

PC/Chol (8:1 w/w) LUVs = system: PC/Chol (8:1 w/w) LUVs
Text: as §1, §2, §3

CC[C@H](C)[C@H](NC(=O)[C@H](C)NC(=O)[C@H](CCCCN)NC(=O)[C@H](CC(C)C)NC(=O)[C@H](C)NC(=O)[C@@H](NC(=O)[C@H](Cc1c[nH]cn1)NC(=O)[C@H](CC(C)C)NC(=O)[C@@H](NC(=O)[C@@H](NC(=O)[C@H](CCCCN)NC(=O)[C@H](CCCCN)NC(=O)[C@H](C)NC(=O)[C@H](CO)NC(=O)[C@H](CCCCN)NC(=O)[C@H](Cc1ccccc1)NC(=O)[C@@H](NC(=O)[C@H](CCCCN)NC(=O)[C@H](CC(C)C)NC(=O)[C@H](Cc1ccccc1)NC(=O)[C@H](CO)NC(=O)[C@H](CCCCN)NC(=O)[C@H](Cc1c[nH]c2ccccc12)NC(=O)[C@H](CCCCN)NC(C)=O)[C@@H](C)O)[C@@H](C)O)C(C)C)[C@@H](C)O)C(=O)N[C@@H](CO)C(=O)N[C@@H](CO)C(N)=O [Peptide V13K]
PC/PG Wavelength (emission maximum) (PC/PG (7:3 w/w) LUVs): 320 nm | PC/SM/PE/PS/Chol Wavelength (emission maximum) ([1]; PC/SM/PE/PS/Chol (4.35:4.35:1:0.3:1 w/w) LUVs, HEPES pH 7.4, 25 °C, 10 min): 321 nm | PC/SM/PE/PS/Chol Intensity ([1]; tryptophan fluorescence intensity, PC/SM/PE/PS/Chol LUVs, 25 °C): 247.36 | PC/Chol Wavelength (emission maximum) (PC/Chol (8:1 w/w) LUVs; HEPES pH 7.4, 25 °C, 10 min): 344 nm | PC/Chol Intensity (PC/Chol (8:1 w/w) LUVs; tryptophan fluorescence intensity, 25 °C): 78.00
